Results as given in article PMC11994786.

Chains of the proteins cited; added tags and fusions are not shown.
UniProt P69566: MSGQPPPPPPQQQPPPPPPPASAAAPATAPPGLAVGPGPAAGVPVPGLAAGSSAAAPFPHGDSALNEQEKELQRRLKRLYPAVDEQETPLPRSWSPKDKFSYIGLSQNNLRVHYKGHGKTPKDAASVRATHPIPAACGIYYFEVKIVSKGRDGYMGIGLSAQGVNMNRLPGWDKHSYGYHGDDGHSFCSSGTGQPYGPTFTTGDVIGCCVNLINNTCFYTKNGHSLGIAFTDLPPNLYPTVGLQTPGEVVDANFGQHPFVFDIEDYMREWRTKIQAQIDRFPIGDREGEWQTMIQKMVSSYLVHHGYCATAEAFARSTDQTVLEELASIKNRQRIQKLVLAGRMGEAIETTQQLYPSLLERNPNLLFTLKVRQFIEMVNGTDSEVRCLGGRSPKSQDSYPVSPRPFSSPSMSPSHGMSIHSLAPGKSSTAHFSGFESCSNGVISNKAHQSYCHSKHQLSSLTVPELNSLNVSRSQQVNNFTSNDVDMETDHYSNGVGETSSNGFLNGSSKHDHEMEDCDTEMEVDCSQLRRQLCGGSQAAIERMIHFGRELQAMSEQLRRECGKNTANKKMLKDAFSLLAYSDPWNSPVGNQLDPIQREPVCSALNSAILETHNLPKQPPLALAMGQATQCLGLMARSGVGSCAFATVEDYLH

B1: Plrg1 (Pleiotropic regulator 1) (protein, UniProt Q922V4 1-513)
chain: MVEEVQKHSVHTLVFRSLKRTHDMFVADNGKPVPLDEESHKRKMAIKLRNEYGPVLHMPTSKENLKEKGPQNATDSYPHKQYPANQGQDVEYLVTGTHPYPAGPGVALTADTKIQRMPSESAAQSLAVALPSQTRVDANRTGPAGSEYRHPGASDRSQPTAMNSIMETGNTKNSALMAKKAPTMPKPQWHPPWKLYRVISGHLGWVRCIAVEPGNQWFVTGSADRTIKIWDLASGKLKLSLTGHISTVRGVIVSTRSPYLFSCGEDKQVKCWDLEYNKVIRHYHGHLSAVYGLDLHPTLDVLVTCSRDSTARIWDVRTKASVHTLSGHTNAVATVRCQAAEPQIITGSHDTTIRLWDLVAGKTRVTLTNHKKSVRAVVLHPLLYTFASGSPDNIKQWKFPDGGFIQNLSGHNAIINTLAVNADGVLVSGADNGTMHLWDWRTGYNFQRVHAAVQPGSLDSESGIFACAFDRSESRLLTAEADKTIKVYREDETATEETHPVSWKPEIIKRKRF
B2: Man2c1 (Mannosidase Alpha Class 2C member 1) (protein, UniProt Q91W89 1-1039)
chain: MAAAPFLKHWRTTFERVEKFVSPIYFTDCNLRGRLFGDSCSVTLSSFLTPERLPYEKAVQQNFSPAQVGDSFGPTWWTCWFRVELVIPEVWVGQEVHLCWESDGESLVWRDGEPVQGLTKEGEKTSYVLSERLRASDPRSLTLYVEVACNGLLGAGKGSMIAAPDPEKMFQLSQAKLAVFHRDVHSLLVDLELLLGVAKGLGEDSQRSFQALHTANQMVNICDPAQPETYPAAKALASKFFGQHGGESQHTIHAMGHCHIDTAWLWPFKETVRKCARSWSTAVTLMEQNTDFIFACSQAQQLEWVKSQYPGLHARLQEFACRGQFVPVGGTWVEMDGNLPSGEAMVRQFLQGQNFFLQEFGKMCSEFWLPDTFGYSAQLPQIMQGCGIKRFLTQKLSWNLVNSFPHHTFFWEGLDGSRVLVHFPPGDSYGMQGSVEEVLKTVTNNRDKGRTNHSGFLFGFGDGGGGPTQTMLDRLKRLSNTDGLPRVQLSSPGQLFTALERDSGQLCTWVGELFLELHNGTYTTHAQLKKGNRECEQILHDVEVLSSLALARSAQFLYPAAQLQHLWRLLLLNQFHDVVTGSCIQLVAEDAMNYYEDIRSHGNPLLSAAAAALCAGEPGPKGLLIINTLPWKRTEVLALPKPCGAHSLALVTVPSIGYAPAPTPTSLQPLLPQQPVFVMQETDGSVTLDNGIIRVRLDPTGCLTSLVLVASGREAIAEGALGNQFVLFDDVPLYWDAWDVMDYHLETRKPVLGQAGTLAVGTEGGLRGSAWFLLQISPNSRLSQEVVLDVGCPYVRFHTEVHWHEAHKFLKVEFPARIRSPQATYEIQFGHLQRPTHNNTSWDWARYEVWAHRWIDLSECDFGLALLNNCKYGASVRGNVLSLSLLRAPKAPDATADMGRHEFTYALMPHKGSFQEAGVIHAAYNLNFPLLALPAPGPAPDTTWSAFSVSSPAVVLETIKQAERCHQHRTLVLRLYEAHGSHVDCWLHTSLPVQEATLCDLLEQRDPTGHLSLQDNRLKLTFSPFQVRSLLLVLQSPPN
B3: Mcm3 (Minichromosome maintenance complex component 3) (protein, UniProt P25206 1-812)
chain: MAGTVVLDDVELREAQRDYLDFLDDEEDQGIYQNKVRELISDNQYRLIVSVNDLRRKNEKRANRLLNNAFEELVAFQRALKDFVASIDATYAKQYEEFYIGLEGSFGSKHVSPRTLTSCFLSCVVCVEGIVTKCSLVRPKVVRSVHYCPATKKTIERRYSDLTTLVAFPSSSVYPTKDEENNPLETEYGLSVYKDHQTITIQEMPEKAPAGQLPRSVDVILDDDLVDKVKPGDRIQVVGTYRCLPGKKGCYTSGTFRTVLIACNVKQMSKDIQPAFSADDIAKIKKFSKTRSKDVFEQLARSLAPSIHGHDYVKKAILCLLLGGVERELENGSHIRGDINILLIGDPSVAKSQLLRYVLCTAPRAIPTTGRGSSGVGLTAAVTTDQETGERRLEAGAMVLADRGVVCIDEFDKMSDMDRTAIHEVMEQGRVTIAKAGIHARLNARCSVLAAANPVYGRYDQYKTPMENIGLQDSLLSRFDLLFIMLDQMDPEQDREISDHVLRMHQYRAPGEQDGDALPLGSSVDILATDDPDFTQDDQQDTRIYEKHDSLLHGTKKKKEKMVSAAFMKKYIHVAKIIKPTLTQESAAYIAEEYSRLRSQDSMSSDTARTSPVTARTLETLIRLATAHAKARMSKTVDLQDAEEAVELVQYAYFKKVLEKEKKRKKASEDESDLEDEEEKSQEDTEQKRKRRKTHAKDGESYDPYDFSEAETQMPQVHTPKTDDSQEKTDDSQETQDSQKVELSEPRLKAFKAALLEVFQEAHEQSVGMLHLTESINRNREEPFSSEEIQACLSRMQDDNQVMVSEGIVFLI
B4: Tho6 (member of the THO complex) (protein, UniProt Q5U4D9 1-341)
chain: MEHAAPLAVPLGQAEVFQALQRLHMTIFSQSVSPCGKFLAAGNNYGQIAIFSLSAALSSEAKEESKKPVVVFHAHDGPVYSMVSTDRHLLSAGDGEVKGWLWAEILKKGCKELWRRQPPYRTSLEVPEINALLLVPKENSLILAGGDCQLHSMDLETGAFTRALRGHTDYIHCLALRERSPEVLSGGEDGAVRLWDLRIAKEVQTIEVYKHEECSRPHNGRWIGCLATDSDWMVCGGGPALTLWHLRSSTPTTVFPIRAPQKHVTFYQDLILSAGQGCCVNHWQLSGELKAQVPGSSPGLLSLSLNQQPAAPECKVLTASGNSCRVDVFTNLGYRAFSLSF
B5: Entpd1 (Ectonucleoside Triphosphate Diphosphohydrolase 1) (protein, UniProt P55772 1-510)
chain: MEDIKDSKVKRFCSKNILIILGFTSILAVIALIAVGLTQNKPLPENVKYGIVLDAGSSHTNLYIYKWPAEKENDTGVVQQLEECQVKGPGISKYAQKTDEIGAYLAECMELSTELIPTSKHHQTPVYLGATAGMRLLRMESEQSADEVLAAVSTSLKSYPFDFQGAKIITGQEEGAYGWITINYLLGRFTQEQSWLSLISDSQKQETFGALDLGGASTQITFVPQNSTIESPENSLQFRLYGEDYTVYTHSFLCYGKDQALWQKLAKDIQVSSGGVLKDPCFNPGYEKVVNVSELYGTPCTKRFEKKLPFDQFRIQGTGDYEQCHQSILELFNNSHCPYSQCAFNGVFLPPLHGSFGAFSAFYFVMDFFKKVAKNSVISQEKMTEITKNFCSKSWEETKTSYPSVKEKYLSEYCFSGAYILSLLQGYNFTDSSWEQIHFMGKIKDSNAGWTLGYMLNLTNMIPAEQPLSPPLPHSTYIGLMVLFSLLLVAVAITGLFIYSKPSYFWKEAV
B6: Mcm5 (protein, UniProt P49718 1-734)
chain: MSGFDDPGIFYSDSFGGDPGAEEGQARKSQLQRRFKEFLRQYRVGTDRTGFTFKYRDELKRHYNLGEYWIEVEMEDLASFDEELADHLHKQPAEHLQLLEEAAKEVADEVTRPRPAGDELLQDIQVMLKSDASPSSIRILKSDMMSHLVKIPGIIISASAVRAKATRISIQCRSCHNTLTNIAMRPGLEGYALPRKCNMDQAGRPKCPLDPYFIMPDKCKCVDFQTLKLQELPDAVPHGEMPRHMQLYCDRYLCDKVVPGNRVTIMGIYSIKKFGLNPSKGRDRVGVGIRSSYIRVLGIQVDTDGSGRSFAGSVSPQEEEEFRRLAALPNIYELISKSISPSIFGGMDMKKAIACLLFGGSRKRLPDGLTRRGDINLLMLGDPGTAKSQLLKFVEKCSPIGVYTSGKGSSAAGLTASVIRDPSSRNFIMEGGAMVLADGGVVCIDEFDKMREDDRVAIHEAMEQQTISIAKAGITTTLNSRCSVLAAANSVFGRWDETKGEDNIDFMPTILSRFDMIFIVKDEHNEERDMMLAKHVMTLHVSALTQTQAVEGEIDLAKMKKFIAYCRARCGPRLSAEAAEKLKNRYIIMRSGARQHERDSDRRSSIPITVRQLEAIVRIAEALSKMKLQPFATEADVEEALRLFQVSTLDAALSGNLSGVEGFTTQEDQEMLSRIEKQLKRRFAIGSQVSEHSIVQDFTKQKYPEHAIRKVLQLMLRRGEIQHRMQRKVLYRLK
B7: Snrp40 (protein, UniProt Q6PE01 1-358)
chain: MIEQQKRKGPELPLVPVKRPRHELLLGAAGAGPGAGPQQATPGALLQAGPPRCSSLQAPIMLLSGHEGEVYCCKFHPNGSTLASAGFDRLILLWNVYGDCDNYATLKGHSGAVMELHYNTDGSMLFSASTDKTVAVWDSETGERVKRLKGHTSFVNSCYPARRGPQLVCTGSDDGTVKLWDIRKKAAVQTFQNTYQVLAVTFNDTSDQIISGGIDNDIKVWDLRQNKLTYTMRGHADSVTGLSLSSEGSYLLSNAMDNTVRVWDVRPFAPKERCVKIFQGNVHNFEKNLLRCSWSPDGSKIAAGSADRFVYVWDTTSRRVLYKLPGHAGSINEVAFHPDEPIILSASSDKRLYMGEIQ
B8: Lyz2 (Lysozyme 2 or Lysozyme M) (protein, UniProt P08905 19-148)
chain: KVYERCEFARTLKRNGMAGYYGVSLADWVCLAQHESNYNTRATNYNRGDQSTDYGIFQINSRYWCNDGKTPRAVNACGINCSALLQDDITAAIQCAKRVVRDPQGIRAWVAWRAHCQNRDLSQYIRNCGV
B9: Msr1 (Macrophage scavenger Receptor 1) (protein, UniProt P30204 1-458)
chain: MTKEMTENQRLCPHEQEDADCSSESVKFDARSMTASLPHSTKNGPSLQEKLKSFKAALIALYLLVFAVLIPVVGIVTAQLLNWEMKNCLVCSLNTSDTSQGPMEKENTSKVEMRFTIIMEHMKDMEERIESISNSKADLIDTERFQNFSMATDQRLNDILLQLNSLISSVQEHGNSLDAISKSLQSLNMTLLDVQLHTETLNVRVRESTAKQQEDISKLEERVYKVSAEVQSVKEEQAHVEQEVKQEVRVLNNITNDLRLKDWEHSQTLKNITFIQGPPGPQGEKGDRGLTGQTGPPGAPGIRGIPGVKGDRGQIGFPGGRGNPGAPGKPGRSGSPGPKGQKGEKGSVGGSTPLKTVRLVGGSGAHEGRVEIFHQGQWGTICDDRWDIRAGQVVCRSLGYQEVLAVHKRAHFGQGTGPIWLNEVMCFGRESSIENCKINQWGVLSCSHSEDAGVTCTS

Target: RanBP9-3xHA (Ran Binding Protein 9 fused to three copies of the HA tag) (mouse) (UniProt P69566)
Test: affinity purification with mass spectrometry; anti-HA magnetic beads on 1 mg pre-cleared whole lung lysate of LysMBP9X mice, overnight at 4 °C, on-bead trypsin digestion, LC-MS/MS; hits significant (p ≤ 0.05) against HA-IP from WT mice and Ig-IPs

Binder	binding
B1	binds
B2	binds
B3	binds
B4	binds
B5	binds
B6	binds
B7	binds

Target: RanBP9-V5 (Ran Binding Protein 9 with a V5 tag at the C-terminus) (mouse) (UniProt P69566)
Test: affinity purification with mass spectrometry; anti-V5 magnetic beads on 1 mg pre-cleared whole lung lysate of LysMBP9X mice, overnight at 4 °C, on-bead trypsin digestion, LC-MS/MS; hits significant (p ≤ 0.05) against V5-IP from WT mice and Ig-IPs

Binder	binding
B8	binds
B9	binds

Results are given in words; binding and its absence hold for the method and conditions named. Binding seen in cells or lysates may run through a third protein. These calls come from enrichment with a bait or labelling near it, and not all partners need be listed.
